# No constants are given. Whether binding was seen depends on the method and setting. Some results given as binding are weak or reduced against the parent protein; the word gives no strength.
# T1: Interleukin-10 (IL-10) receptor on the J774 cell line (UniProt Q61727)
# T1 sequence (looked up): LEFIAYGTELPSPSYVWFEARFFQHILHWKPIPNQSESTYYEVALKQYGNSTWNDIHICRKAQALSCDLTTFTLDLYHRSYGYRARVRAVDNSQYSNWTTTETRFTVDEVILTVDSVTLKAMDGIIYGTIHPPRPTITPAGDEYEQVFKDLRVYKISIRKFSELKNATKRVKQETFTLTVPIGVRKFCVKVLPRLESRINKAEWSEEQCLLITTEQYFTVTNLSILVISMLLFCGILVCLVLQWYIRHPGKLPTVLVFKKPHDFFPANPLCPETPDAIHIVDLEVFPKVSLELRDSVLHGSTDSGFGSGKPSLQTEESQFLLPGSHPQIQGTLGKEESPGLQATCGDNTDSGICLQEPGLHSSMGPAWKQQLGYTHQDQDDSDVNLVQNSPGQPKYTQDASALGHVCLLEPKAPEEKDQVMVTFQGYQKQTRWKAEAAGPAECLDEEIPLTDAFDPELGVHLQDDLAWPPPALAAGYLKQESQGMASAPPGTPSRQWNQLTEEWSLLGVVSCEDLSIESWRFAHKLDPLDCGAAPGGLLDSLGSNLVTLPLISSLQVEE
# Molecular target: T1, Interleukin-10 (IL-10) receptor on the J774 cell line
# Assay: phage display selection on J774 cells, three rounds, competitive elution with rIL-10
row,Binder,binding
1,"HACSAVIKSSCGGGS (disulfide bridge (Cys at positions 3 and 11, replacing the Ser of Pep 2)) [Peptide 1 (Pep 1)]",binds
2,HASSAVIKSSSGGGS [Peptide 2 (Pep 2)],binds
3,HCFDTQRMEFRMPPGGGS [Peptide 3 (Pep 3)],binds
4,HCMTGSRATFPSAPGGGS [Peptide 4 (Pep 4)],binds
